No constants are given. Whether binding was seen depends on the method and setting. In cells and extracts the contact can be indirect. A result given as binding can be weak or reduced; the word gives no strength.
Target: GTPase Regulator Associated with Focal Adhesion Kinase-1 (GRAF1) (rat (endogenous in rat brain))
Experiment: co-IP; GRAF1 immunoprecipitated from rat brain cytosol via Ab2; Dynamin1 identified by mass spectrometry and confirmed by immunoblot

binding: binds
B1: Dynamin1 (rat brain cytosol) (protein, UniProt P21575 1-864)
chain: MGNRGMEDLIPLVNRLQDAFSAIGQNADLDLPQIAVVGGQSAGKSSVLENFVGRDFLPRGSGIVTRRPLVLQLVNSTTEYAEFLHCKGKKFTDFEEVRLEIEAETDRVTGTNKGISPVPINLRVYSPHVLNLTLVDLPGMTKVPVGDQPPDIEFQIRDMLMQFVTKENCLILAVSPANSDLANSDALKIAKEVDPQGQRTIGVITKLDLMDEGTDARDVLENKLLPLRRGYIGVVNRSQKDIDGKKDITAALAAERKFFLSHPSYRHLADRMGTPYLQKVLNQQLTNHIRDTLPGLRNKLQSQLLSIEKEVDEYKNFRPDDPARKTKALLQMVQQFAVDFEKRIEGSGDQIDTYELSGGARINRIFHERFPFELVKMEFDEKELRREISYAIKNIHGIRTGLFTPDLAFEATVKKQVQKLKEPSIKCVDMVVSELTSTIRKCSEKLQQYPRLREEMERIVTTHIREREGRTKEQVMLLIDIELAYMNTNHEDFIGFANAQQRSNQMNKKKTSGNQDEILVIRKGWLTINNIGIMKGGSKEYWFVLTAENLSWYKDDEEKEKKYMLSVDNLKLRDVEKGFMSSKHIFALFNTEQRNVYKDYRQLELACETQEEVDSWKASFLRAGVYPERVGDKEKASETEENGSDSFMHSMDPQLERQVETIRNLVDSYMAIVNKTVRDLMPKTIMHLMINNTKEFIFSELLANLYSCGDQNTLMEESAEQAQRRDEMLRMYHALKEALSIIGDINTTTVSTPMPPPVDDSWLQVQSVPAGRRSPTSSPTPQRRAPAVPPARPGSRGPAPGPPPAGSALGGAPPVPSRPGASPDPFGPPPQVPSRPNRAPPGVPSRSGQASPSRPESPRPPFDL

— publication PMC2726289
